Some results were stated once for a whole list of compounds, not compound by compound.
Legend:
Format in all cases: cell-based
Conditions in all cases: >1 loss of susceptibility
[1] = system: HIV-1 reverse transcriptase K103N + Y188L (K103N-Y188L-RTV); assay: Phenotypic susceptibility assay, site directed mutant K103N-Y188L-RTV
Protocol: (§1) Resistance tests were carried out with resistance test vectors using two host cell types. Resistance test vector viral particles were produced by a first host cell (the resistance test vector host cell) that was prepared by transfecting a packaging host cell with the resistance test vector and the packaging expression vector. The resistance test vector viral particles were then used to infect a second host cell (the target host cell) in which the expression of the indicator gene is measured.
(§2) The resistance test vectors containing a functional luciferase gene cassette were constructed and host cells were transfected with the resistance test vector DNA. The resistant test vectors contained patient-derived reverse transcriptase and protease sequences that were either susceptible or resistant to the antiretroviral agents, such as nucleoside reverse transcriptase inhibitors, non-nucleoside reverse transcriptase inhibitors and protease inhibitors. […] The IC50 values were determined by plotting percent drug inhibition vs. log10 drug concentration.
(§3) Host cells were seeded in 10-cm-diameter dishes and were transfected several days after plating with resistance test vector plasmid DNA and the envelope expression vector. […] HIV capsid protein (p24) levels in the harvested cell culture media were determined by an EIA method as described by the manufacturer (SIAC; Frederick, Md.). […]

[2] = system: HIV-1 reverse transcriptase L100I + K103N (L100I-K103N-RTV); assay: Phenotypic susceptibility assay, site directed mutant L100I-K103N-RTV
Protocol: as §1, §2, §3

[3] = system: HIV-1 reverse transcriptase L100I + K103N + Y188L (L100I-K103N-Y188L-RTV); assay: Phenotypic susceptibility assay, site directed mutant L100I-K103N-Y188L-RTV
Protocol: as §1, §2, §3

Measured: fold change in susceptibility compared to wild type control RTV

O=C1Nc2ccc(Cl)cc2[C@@](C#CC2CC2)(C(F)(F)F)O1 [efavirenz]
greater than 250 fold: [1] | [2] | [3]

— patent publication US20050130134A1, “Means and methods for monitoring non-nucleoside reverse transcriptase inhibitor antiretroviral therapy and guiding therapeutic decisions in the treatment HIV-AIDS” (ViroLogic, Inc., priority 2000, published 2005)
